# From PubChem BioAssay AID485314 (National Center for Advancing Translational Sciences (NCATS), 2010)
# Screen size: about 340,000 compounds; about 4,500 (1.3%) were called active. This list was built around the results that the source calls inconclusive (neither active nor inactive); the mix of calls is not that of the screen. Calls come from the whole dose curve; as a rule, active = well fitted inhibition curve with a large enough effect; inconclusive = small, poorly fitted or top-dose-only effect, or another doubt; inactive = no such curve, though single readings can be large or run the other way. A potency beside an inconclusive call is a rough fit, not a confirmed value.
# Target: DNA polymerase beta (Homo sapiens) (UniProt P06746)
# Test: qHTS Assay for Inhibitors of DNA Polymerase Beta
# Details: Pol beta primer extension/strand displacement, fluorescence kinetic; activity change, negative = inhibition: at 114 µM (top of the series)
# Procedure, shortened: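 Pol beta (10 nM) and compounds were preincubated 15 min at room temperature, then 50 nM substrate (final) started primer extension/strand displacement. Reads were taken at 0 and 10 min; concentration-response data were fitted to a four-parameter Hill equation.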
# % is set by controls: 0 for no effect and ±100 for the full control effect; potency is the fitted concentration of half-maximal effect.
SMILES,"activity change, negative = inhibition",Potency
CCn1nc(-c2ccccc2)c(-c2ccccc2)c(C(=O)Nc2ccccc2C(N)=O)c1=O,inactive: 1.12%,–
CS(=O)(=O)c1ccccc1C(=O)Nc1ccc(-c2nc3ccccc3[nH]2)cc1,inactive: 18.5%,–
O=C(Cc1cccs1)NCCc1ccc(F)cc1,–,"inconclusive: 7.08 µM [inhibitor, full curve, poor fit]"
COc1cc([C@@H]2c3cc4c(cc3[C@@H](O)[C@@H](CO)[C@@H]2CO)OCO4)cc(OC)c1O[Si](C)(C)C(C)(C)C,–,"inconclusive: 39.8 µM [inhibitor, partial curve]"
Cc1c(C(=O)N2CCN(c3ccccn3)CC2)cccc1[N+](=O)[O-],inactive: 25.7%,–
Cc1ccc(-n2c(SCC(=O)NCc3ccco3)nc3sc4c(c3c2=O)CC(C)(C)SC4)cc1,–,"inconclusive: 12.6 µM [inhibitor, partial curve]"
O=C(c1ccco1)N1CCN(Cc2csc(-c3ccccc3Cl)n2)CC1,inactive: -0.672%,–
CCCCN(CC)CCNC(=O)CN1C(=O)COc2ccc(S(=O)(=O)N3CCOCC3)cc21,inactive: -0.0144%,–
COc1ccc(OC)c(CCNc2nc3cc(OC)c(OC)cc3c3nc(-c4cccnc4)nn23)c1,inactive: -29.9%,–
CCN(CC)CCNC(=O)C1CCN(S(=O)(=O)N2CCCCC2)CC1,–,"inconclusive: 89.1 µM [inhibitor, single point]"
COC(=O)C(CO)Nc1ncnc2onc(-c3ccc(F)cc3)c12 (stereo not given),inactive: 41%,–
O=[N+]([O-])c1cccc(-c2nnc3c4ccccc4c4ccccc4n23)c1,–,"inconclusive: 2.51 µM [inhibitor, full curve, poor fit]"
O=[N+]([O-])c1ccc(/C=N/Nc2ncc(-c3ccccc3)cn2)cc1,inactive: -1.28%,–
O=C(Nc1nc2ccccc2[nH]1)C1CCCC1,–,"inconclusive: 39.8 µM [inhibitor, single point]"
NNC(=O)CCc1nc2ccc(O)cc2[nH]1,–,"inconclusive: 15.8 µM [inhibitor, full curve]"
CS(=O)(=O)N1CCN(C(=O)CCc2ccccc2)CC1,–,"inconclusive: 100 µM [inhibitor, single point]"
O=C(c1cccc(N2C(=O)C3CC=CCC3C2=O)c1)N1CCN(c2ccccc2)CC1 (stereo not given),–,active: 44.7 µM
O=C(Cc1cccs1)N(c1ccc(F)cc1)C1(C(=O)NC2CCCCC2)CCCC1,–,"inconclusive: 89.1 µM [inhibitor, single point]"
COc1ccc(/C(N)=N/OC(=O)Cc2cccs2)cc1OC,–,"inconclusive: 39.8 µM [inhibitor, single point]"
COc1ccc(N2CCN(c3ncnc4c3nnn4Cc3ccccc3Cl)CC2)cc1,–,"inconclusive: 100 µM [inhibitor, single point]"

# Part of the list above, tab-delimited:
SMILES	activity change, negative = inhibition	Potency
CCCCN(CC)CCNC(=O)CN1C(=O)COc2ccc(S(=O)(=O)N3CCOCC3)cc21	inactive: -0.0144%	–
COC(=O)C(CO)Nc1ncnc2onc(-c3ccc(F)cc3)c12 (stereo not given)	inactive: 41%	–
O=[N+]([O-])c1cccc(-c2nnc3c4ccccc4c4ccccc4n23)c1	–	inconclusive: 2.51 µM [inhibitor, full curve, poor fit]
NNC(=O)CCc1nc2ccc(O)cc2[nH]1	–	inconclusive: 15.8 µM [inhibitor, full curve]
